We go through one sequence from patent US20170016916.

At least one result comes from cells or an extract, where the contact may be indirect.

The target of this data set is cardiac troponin I (Troponin I, cTnI) (Homo sapiens) (UniProt P19429). Nature of the data set: binding assay. The settings on record: immobilized on metal surface of reactive electrode; HEMT-type transistor biosensor; human serum with 0.033, 1.886 and 33.7 ng/ml Troponin I; protein in an extract; protein details: endogenous in human serum samples; single-stranded DNA.

Consider “CGCATGCCAAACGTTGCCTCATAGTTCCCTCCCCGTGTCC [Troponin I aptamer]”, for which the binding result was “binds”.
